Source: PubChem BioAssay AID186 (DTP/NCI, 2004)
Shown are survivors of the treated group in tumour-free mice. Survivors were counted at the toxicity check, usually on the fifth day, unless a day is given; later deaths do not show. Schedule codes are those of the source, read here as Q, the interval in days (D) or hours (H), X, the number of doses. Some entries hold several experiments; their values stand side by side, smallest first.

Test system: B6D2F1 mice, nontumored toxicity test, survival
Test: NCI In Vivo Anticancer Drug Screen. Data for tumor model Nontumored Animals (Toxicity Test) in B6D2F1 (BDF1) mice

Measured: survivor count

Cc1cc(NCCCCCCNc2cc(C)nc3ccc(N)cc23)c2cc(N)ccc2n1
7 of 7 and 8 of 8: dose: 16.0 mg/kg/injection, schedule: Q01DX009 (ip), vehicle: Klucel (hydroxypropylcellulose) (HPC)
8 of 8: dose: 4.0 mg/kg/injection, schedule: Q01DX009 (ip), vehicle: Klucel (hydroxypropylcellulose) (HPC) | dose: 4.0 mg/kg/injection, schedule: Q03HX016 (ip), vehicle: Klucel (hydroxypropylcellulose) (HPC) | dose: 4.0 mg/kg/injection, schedule: Q03HX024 (ip), vehicle: Klucel (hydroxypropylcellulose) (HPC) | dose: 8.0 mg/kg/injection, schedule: Q01DX009 (ip), vehicle: Klucel (hydroxypropylcellulose) (HPC) | dose: 8.0 mg/kg/injection, schedule: Q01DX009 (sc), vehicle: Klucel (hydroxypropylcellulose) (HPC) | dose: 8.0 mg/kg/injection, schedule: Q03HX008 (ip), vehicle: Klucel (hydroxypropylcellulose) (HPC) | dose: 8.0 mg/kg/injection, schedule: Q03HX016 (ip), vehicle: Klucel (hydroxypropylcellulose) (HPC) | dose: 8.0 mg/kg/injection, schedule: Q03HX024 (ip), vehicle: Klucel (hydroxypropylcellulose) (HPC) | dose: 16.0 mg/kg/injection, schedule: Q01DX009 (sc), vehicle: Klucel (hydroxypropylcellulose) (HPC) | dose: 16.0 mg/kg/injection, schedule: Q03HX008 (ip), vehicle: Klucel (hydroxypropylcellulose) (HPC) | dose: 16.0 mg/kg/injection, schedule: Q03HX016 (ip), vehicle: Klucel (hydroxypropylcellulose) (HPC) | dose: 16.0 mg/kg/injection, schedule: Q03HX024 (ip), vehicle: Klucel (hydroxypropylcellulose) (HPC) | dose: 32.0 mg/kg/injection, schedule: Q01DX009 (ip), vehicle: Klucel (hydroxypropylcellulose) (HPC) | dose: 32.0 mg/kg/injection, schedule: Q01DX009 (oral), vehicle: Klucel (hydroxypropylcellulose) (HPC) | dose: 32.0 mg/kg/injection, schedule: Q01DX009 (sc), vehicle: Klucel (hydroxypropylcellulose) (HPC) | dose: 32.0 mg/kg/injection, schedule: Q03HX008 (ip), vehicle: Klucel (hydroxypropylcellulose) (HPC) | dose: 32.0 mg/kg/injection, schedule: Q03HX016 (ip), vehicle: Klucel (hydroxypropylcellulose) (HPC) | dose: 32.0 mg/kg/injection, schedule: Q03HX024 (ip), vehicle: Klucel (hydroxypropylcellulose) (HPC) | dose: 32.0 mg/kg/injection, schedule: Q04DX003 (ip), vehicle: Klucel (hydroxypropylcellulose) (HPC) | dose: 32.0 mg/kg/injection, schedule: Q08DX002 (ip), vehicle: Klucel (hydroxypropylcellulose) (HPC) | dose: 64.0 mg/kg/injection, schedule: Q01DX001 (ip), vehicle: Klucel (hydroxypropylcellulose) (HPC) | dose: 64.0 mg/kg/injection, schedule: Q01DX009 (ip), vehicle: Klucel (hydroxypropylcellulose) (HPC) | dose: 64.0 mg/kg/injection, schedule: Q01DX009 (oral), vehicle: Klucel (hydroxypropylcellulose) (HPC) | dose: 64.0 mg/kg/injection, schedule: Q01DX009 (sc), vehicle: Klucel (hydroxypropylcellulose) (HPC) | dose: 64.0 mg/kg/injection, schedule: Q03HX008 (ip), vehicle: Klucel (hydroxypropylcellulose) (HPC) | dose: 64.0 mg/kg/injection, schedule: Q03HX016 (ip), vehicle: Klucel (hydroxypropylcellulose) (HPC) | dose: 64.0 mg/kg/injection, schedule: Q03HX024 (ip), vehicle: Klucel (hydroxypropylcellulose) (HPC) | dose: 64.0 mg/kg/injection, schedule: Q04DX003 (ip), vehicle: Klucel (hydroxypropylcellulose) (HPC) | dose: 64.0 mg/kg/injection, schedule: Q04DX003 (sc), vehicle: Klucel (hydroxypropylcellulose) (HPC) | dose: 64.0 mg/kg/injection, schedule: Q08DX002 (ip), vehicle: Klucel (hydroxypropylcellulose) (HPC) | dose: 128.0 mg/kg/injection, schedule: Q01DX001 (ip), vehicle: Klucel (hydroxypropylcellulose) (HPC) | dose: 128.0 mg/kg/injection, schedule: Q01DX009 (oral), vehicle: Klucel (hydroxypropylcellulose) (HPC) | dose: 128.0 mg/kg/injection, schedule: Q01DX009 (sc), vehicle: Klucel (hydroxypropylcellulose) (HPC) | dose: 128.0 mg/kg/injection, schedule: Q03HX008 (ip), vehicle: Klucel (hydroxypropylcellulose) (HPC) | dose: 128.0 mg/kg/injection, schedule: Q03HX016 (ip), vehicle: Klucel (hydroxypropylcellulose) (HPC) | dose: 128.0 mg/kg/injection, schedule: Q03HX024 (ip), vehicle: Klucel (hydroxypropylcellulose) (HPC) | dose: 128.0 mg/kg/injection, schedule: Q04DX003 (ip), vehicle: Klucel (hydroxypropylcellulose) (HPC) | dose: 128.0 mg/kg/injection, schedule: Q04DX003 (sc), vehicle: Klucel (hydroxypropylcellulose) (HPC) | dose: 128.0 mg/kg/injection, schedule: Q08DX002 (ip), vehicle: Klucel (hydroxypropylcellulose) (HPC) | dose: 256.0 mg/kg/injection, schedule: Q01DX001 (ip), vehicle: Klucel (hydroxypropylcellulose) (HPC) | dose: 256.0 mg/kg/injection, schedule: Q01DX009 (oral), vehicle: Klucel (hydroxypropylcellulose) (HPC) | dose: 256.0 mg/kg/injection, schedule: Q01DX009 (sc), vehicle: Klucel (hydroxypropylcellulose) (HPC) | dose: 256.0 mg/kg/injection, schedule: Q04DX003 (ip), vehicle: Klucel (hydroxypropylcellulose) (HPC) | dose: 256.0 mg/kg/injection, schedule: Q04DX003 (oral), vehicle: Klucel (hydroxypropylcellulose) (HPC) | dose: 256.0 mg/kg/injection, schedule: Q04DX003 (sc), vehicle: Klucel (hydroxypropylcellulose) (HPC) | dose: 256.0 mg/kg/injection, schedule: Q08DX002 (ip), vehicle: Klucel (hydroxypropylcellulose) (HPC) | dose: 512.0 mg/kg/injection, schedule: Q01DX001 (ip), vehicle: Klucel (hydroxypropylcellulose) (HPC) | dose: 512.0 mg/kg/injection, schedule: Q01DX009 (oral), vehicle: Klucel (hydroxypropylcellulose) (HPC) | dose: 512.0 mg/kg/injection, schedule: Q04DX003 (ip), vehicle: Klucel (hydroxypropylcellulose) (HPC) | dose: 512.0 mg/kg/injection, schedule: Q04DX003 (oral), vehicle: Klucel (hydroxypropylcellulose) (HPC) | dose: 512.0 mg/kg/injection, schedule: Q04DX003 (sc), vehicle: Klucel (hydroxypropylcellulose) (HPC) | dose: 512.0 mg/kg/injection, schedule: Q08DX002 (ip), vehicle: Klucel (hydroxypropylcellulose) (HPC) | dose: 1024.0 mg/kg/injection, schedule: Q01DX001 (ip), vehicle: Klucel (hydroxypropylcellulose) (HPC) | dose: 1024.0 mg/kg/injection, schedule: Q01DX009 (oral), vehicle: Klucel (hydroxypropylcellulose) (HPC) | dose: 1024.0 mg/kg/injection, schedule: Q04DX003 (ip), vehicle: Klucel (hydroxypropylcellulose) (HPC) | dose: 1024.0 mg/kg/injection, schedule: Q04DX003 (oral), vehicle: Klucel (hydroxypropylcellulose) (HPC) | dose: 1024.0 mg/kg/injection, schedule: Q04DX003 (sc), vehicle: Klucel (hydroxypropylcellulose) (HPC) | dose: 1024.0 mg/kg/injection, schedule: Q08DX002 (ip), vehicle: Klucel (hydroxypropylcellulose) (HPC) | dose: 2048.0 mg/kg/injection, schedule: Q04DX003 (oral), vehicle: Klucel (hydroxypropylcellulose) (HPC)
3 of 8: dose: 256.0 mg/kg/injection, schedule: Q01DX009 (ip), vehicle: Klucel (hydroxypropylcellulose) (HPC)
7 of 8 and 8 of 8: dose: 128.0 mg/kg/injection, schedule: Q01DX009 (ip), vehicle: Klucel (hydroxypropylcellulose) (HPC)

NC(Cc1cc(I)c(Oc2cc(I)c(O)c(I)c2)c(I)c1)C(=O)O (stereo not drawn)
5 of 5: dose: 0.63 mg/kg/injection, schedule: Q01DX009 (ip), vehicle: saline | dose: 2.5 mg/kg/injection, schedule: Q01DX009 (ip), vehicle: saline | dose: 10.0 mg/kg/injection, schedule: Q01DX009 (ip), vehicle: saline | dose: 40.0 mg/kg/injection, schedule: Q01DX009 (ip), vehicle: saline | dose: 80.0 mg/kg/injection, schedule: Q01DX009 (ip), vehicle: saline | dose: 160.0 mg/kg/injection, schedule: Q01DX009 (ip), vehicle: saline
